No constants are given. Whether binding was seen depends on the method and setting. Binding seen in cells or lysates may run through a third protein. Tags and fused reporters may be left off the sequences shown.
Target: T1, GST-Klp64D^tail (Drosophila) (UniProt Q9VRK9)
T1 sequence: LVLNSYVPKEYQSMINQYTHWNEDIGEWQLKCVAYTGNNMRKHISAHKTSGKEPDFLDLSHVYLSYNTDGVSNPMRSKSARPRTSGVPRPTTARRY
Assay: pull-down; GST fusion protein on blocked glutathione Sepharose 4B beads incubated with lysates containing MBP-fusion proteins O/N at 4 °C; washes in 20 mM Tris pH 7.5, 150 mM NaCl, 0.5 mM EDTA, 10% glycerol, 0.1% Triton X 100, 1 mM DTT; Western blot with anti-GST or anti-MBP; only the target …

The chains behind the UniProt entries cited, without tags or fusion partners. Where a name states a change or a piece, a line headed by the entry shows the natural chain unless it says otherwise.
UniProt P18824: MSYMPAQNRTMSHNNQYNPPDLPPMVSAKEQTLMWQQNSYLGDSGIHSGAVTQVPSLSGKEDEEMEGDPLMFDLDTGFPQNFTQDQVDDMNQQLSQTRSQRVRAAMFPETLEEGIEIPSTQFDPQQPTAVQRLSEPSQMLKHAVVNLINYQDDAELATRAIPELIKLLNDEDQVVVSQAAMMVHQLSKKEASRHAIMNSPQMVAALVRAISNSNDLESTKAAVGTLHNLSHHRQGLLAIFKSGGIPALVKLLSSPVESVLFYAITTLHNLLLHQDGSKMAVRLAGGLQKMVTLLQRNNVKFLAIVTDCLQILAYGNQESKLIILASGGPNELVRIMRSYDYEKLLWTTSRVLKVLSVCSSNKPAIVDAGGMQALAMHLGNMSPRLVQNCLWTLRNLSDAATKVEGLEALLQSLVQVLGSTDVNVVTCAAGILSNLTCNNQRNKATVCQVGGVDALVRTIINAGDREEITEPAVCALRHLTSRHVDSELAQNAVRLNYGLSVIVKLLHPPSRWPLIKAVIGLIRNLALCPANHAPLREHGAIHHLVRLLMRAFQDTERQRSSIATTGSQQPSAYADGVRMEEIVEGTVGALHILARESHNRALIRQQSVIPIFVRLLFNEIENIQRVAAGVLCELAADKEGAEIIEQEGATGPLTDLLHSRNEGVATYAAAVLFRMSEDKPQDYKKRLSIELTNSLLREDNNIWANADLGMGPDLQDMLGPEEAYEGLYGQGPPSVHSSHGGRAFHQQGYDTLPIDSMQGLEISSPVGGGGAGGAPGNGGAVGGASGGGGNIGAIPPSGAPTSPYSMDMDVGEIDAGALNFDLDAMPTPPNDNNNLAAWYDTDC

binding: no binding
Substance: Arm^ΔAR2 (from UniProt P18824)
